Experimental data: PubChem BioAssay AID602196 (INSERM, 2012)
Screen: 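Genes whose knock-down alters cisplatin killing of lung cancer cells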. Cells: human A549 lung cancer cells. Knock-down reagent: siRNA pair against human genes. Time to read-out: 48 h transfection before cisplatin; time from cisplatin to read-out not stated. Challenge: cisplatin at a dose killing half of control-siRNA cells; exact dose and duration not given. Detection: 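Cisplatin cell death as a shift from the 50% death seen with control siRNA; siRNAs toxic or growth-blocking alone scored 0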. Direction: two-siRNA summed score (-2 to +2): higher = both siRNAs protect from cisplatin killing; -2 means both sensitise; mean protection from cisplatin (shift in death) and protection from cisplatin (shift in death), siRNA C: higher = protection from cisplatin killing. Call rule: 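siRNAs harmful alone (LDH or WST-1) get 0; others get +1 for less and -1 for more cisplatin killing; genes are active when the two siRNAs give the same sign, summing to ±2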. Meaning of the calls: active = both siRNAs shift cisplatin killing the same way; inactive = no consistent shift, or siRNA harmful alone.
In all, the deposit lists about 23,000 reagents; shown is an unselected part. In the full data, 455 (2%) are marked active. 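Active includes both protection and sensitisation; some change values fall well beyond the stated -50 to +50 range.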 A number with no mark means an inactive call. Further read-outs or replicates are left out here. No sequences are given here. Not given: the amount of reagent.

| gene | two-siRNA summed score (-2 to +2) | mean protection from cisplatin (shift in death) (%) | protection from cisplatin (shift in death), siRNA C (%) |
| --- | --- | --- | --- |
| LRP4 | 0 | -4.3 | -13.3 |
| SFSWAP | 0 | 5.6 | 10.2 |
| PCYOX1L | 0 | 2.8 | 1.1 |
| NFX1 | -1 | -12 | -32.4 |
| OR5AR1 | 1 | 13.3 | 13.1 |
| TMEM130 | 0 | 5.6 | 3.8 |
| KAT8 | 0 | 10.6 | 3.8 |
| TMEM141 | 0 | 0.1 | 4.1 |
| TRIP12 | 0 | 11 | 6.1 |
| CCN6 | 0 | -6.7 | -6 |
| DNASE1 | 0 | 1.5 | 7.2 |
| STAMBPL1 | -1 | -6.1 | -33.5 |
| SLC38A4 | 0 | 5.4 | 2.4 |
| KDM4B | -1 | -25.4 | -38.4 |
| ADH5 | -1 | -7.1 | -11.9 |
| LOC441696 | 0 | 11.3 | 9.4 |
| SPPL3 | 0 | 8.5 | 8.2 |
| CDKN1C | 1 | 13.3 | 16.7 |
| SCARF2 | -1 | -13.6 | -5.7 |
| BBS7 | 0 | 17.3 | 23.8 |
| TFEC | -2 (active) | -27.8 | -35.7 |
| PPP1R3B | 0 | 2.3 | -3 |
| GLT6D1 | 0 | -0.3 | 7.1 |
| FOXP2 | -1 | -3.5 | -13.3 |
| NIPAL3 | 0 | 9.1 | 15.9 |
| LCN15 | 0 | 13.1 | -2.7 |
| LOC389638 | 0 | -0.8 | -17.3 |

Continued (9 carried over from the part before).
| gene | two-siRNA summed score (-2 to +2) | mean protection from cisplatin (shift in death) (%) | protection from cisplatin (shift in death), siRNA C (%) |
| --- | --- | --- | --- |
| SCARF2 | -1 | -13.6 | -5.7 |
| BBS7 | 0 | 17.3 | 23.8 |
| TFEC | -2 (active) | -27.8 | -35.7 |
| PPP1R3B | 0 | 2.3 | -3 |
| GLT6D1 | 0 | -0.3 | 7.1 |
| FOXP2 | -1 | -3.5 | -13.3 |
| NIPAL3 | 0 | 9.1 | 15.9 |
| LCN15 | 0 | 13.1 | -2.7 |
| LOC389638 | 0 | -0.8 | -17.3 |
| PIGL | 0 | 9.5 | 10.2 |
| ZNF527 | 0 | 5.4 | -5 |
| SPEM1 | -1 | -2.6 | 12.6 |
| SHH | 0 | 3.5 | -1.1 |
| PMS2P2 | 0 | -3.5 | -13.6 |
| PXDNL | 0 | -6.1 | -17.1 |
| LOC440784 | 1 | 8.7 | 17.4 |
| COXFA4L3 | 0 | 6.5 | 10.2 |
| LOC389100 | 1 | 6.8 | -3.2 |
| OR4X2 | 0 | 11.1 | 9 |
| CYP4F22 | 0 | -2.9 | 10.5 |
| IPO7 | 0 | 10.5 | 28.5 |
| EXOSC8 | 0 | 8.7 | 10.6 |
| ENG | 0 | 1.8 | 10.9 |
| CLDN19 | 0 | -2.2 | 0.6 |
| TOMM34 | 0 | 9.8 | 1.3 |
| SEC11B | 0 | 9.1 | 9.2 |
| ARMCX2 | 0 | 3 | 10.7 |
| ASRGL1 | -2 (active) | -25 | -20.9 |
| PASK | 0 | -0.5 | 9.8 |
| CNOT6 | 1 | 11.5 | 8.3 |
| LOC387804 | 1 | 5.1 | 15.8 |
| FCRL4 | 0 | 10 | 7.9 |
| RTP4 | 0 | 2.4 | -10.8 |
| LOC439961 | 0 | 12.8 | 14.5 |
| CCDC124 | 0 | 5.9 | 9 |
| LOC441897 | 1 | 15.8 | 8.9 |
| E2F3 | 0 | 6.3 | 8.1 |
| SPATA32 | 0 | -5 | -3.1 |
| FEZ2 | 0 | 3.6 | 8.3 |
| MRPL39 | 0 | 14.8 | 10.1 |
| ZNF430 | 0 | 2.6 | 11.7 |
| SPTBN4 | 0 | -8.1 | -11.8 |
| LOC441313 | -1 | -9.3 | -9.9 |
| CDK5RAP3 | 0 | 5.9 | 8.5 |
| MRPL16 | 0 | 2.6 | -7.2 |
| MCRIP1 | 1 | 18.3 | 35.8 |
| ATP5MJ | 0 | 2.4 | 1.5 |
| KDM4A | 0 | -9.9 | -11.4 |
| ELF1 | 0 | 6.7 | 12 |
| LINC02072 | 0 | 11.5 | 4.8 |
| HAPSTR2 | 0 | 5.5 | 9.8 |
| UBE2D1 | 0 | 14 | 10.2 |
| DPP10-AS1 | 1 | 21.6 | 41 |
| LOC93556 | 0 | 12.7 | 8.3 |
| RNASEK | 0 | 0.9 | -5.1 |
